No constants are given. Whether binding was seen depends on the method and setting. Binding seen in cells or lysates may run through a third protein. Some binding calls cover weakened binding; strength is not graded here. Where a sequence is shown, tags or fusion partners need not be part of it.
What was measured:
[1] = target: T1, Flag/HA-SMG7 transiently expressed in H1299 cells (human) (UniProt Q92540); assay: co-IP; α-Flag M2 agarose immunoprecipitation from BC100 extracts of cells expressing the Flag- or Flag-HA-tagged protein (H1299 or 293 transient, U2OS stable), Flag peptide elution, western blot
T1 sequence: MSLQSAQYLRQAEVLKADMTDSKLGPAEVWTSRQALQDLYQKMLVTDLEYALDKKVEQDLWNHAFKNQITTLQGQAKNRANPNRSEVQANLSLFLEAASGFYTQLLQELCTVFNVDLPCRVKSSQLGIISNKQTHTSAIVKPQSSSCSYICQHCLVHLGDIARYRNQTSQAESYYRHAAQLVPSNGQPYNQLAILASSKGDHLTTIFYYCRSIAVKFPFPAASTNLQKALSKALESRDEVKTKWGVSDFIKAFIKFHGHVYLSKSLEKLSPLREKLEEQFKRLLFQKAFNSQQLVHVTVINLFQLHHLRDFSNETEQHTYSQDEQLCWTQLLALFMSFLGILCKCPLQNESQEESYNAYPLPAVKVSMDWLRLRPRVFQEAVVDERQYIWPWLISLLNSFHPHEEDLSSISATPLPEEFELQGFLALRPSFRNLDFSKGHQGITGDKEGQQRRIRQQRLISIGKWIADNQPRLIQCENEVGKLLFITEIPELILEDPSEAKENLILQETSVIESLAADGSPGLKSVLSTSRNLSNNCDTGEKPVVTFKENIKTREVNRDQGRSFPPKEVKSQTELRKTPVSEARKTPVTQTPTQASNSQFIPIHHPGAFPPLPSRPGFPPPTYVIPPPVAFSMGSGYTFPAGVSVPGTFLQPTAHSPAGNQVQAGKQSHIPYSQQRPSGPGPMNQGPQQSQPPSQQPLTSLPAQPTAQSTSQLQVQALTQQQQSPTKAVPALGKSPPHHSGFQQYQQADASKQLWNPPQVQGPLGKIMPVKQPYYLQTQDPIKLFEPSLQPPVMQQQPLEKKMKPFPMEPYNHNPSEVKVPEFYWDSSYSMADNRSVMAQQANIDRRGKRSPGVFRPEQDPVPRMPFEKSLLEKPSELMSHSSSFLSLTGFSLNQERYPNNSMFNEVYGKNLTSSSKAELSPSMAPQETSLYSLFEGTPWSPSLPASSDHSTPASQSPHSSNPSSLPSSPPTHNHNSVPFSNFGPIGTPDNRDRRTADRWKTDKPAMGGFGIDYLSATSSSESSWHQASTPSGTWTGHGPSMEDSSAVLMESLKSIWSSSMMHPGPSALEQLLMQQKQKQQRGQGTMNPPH

Sequences of proteins named here, by UniProt entry; tags and fusion partners are left off.
UniProt Q00987: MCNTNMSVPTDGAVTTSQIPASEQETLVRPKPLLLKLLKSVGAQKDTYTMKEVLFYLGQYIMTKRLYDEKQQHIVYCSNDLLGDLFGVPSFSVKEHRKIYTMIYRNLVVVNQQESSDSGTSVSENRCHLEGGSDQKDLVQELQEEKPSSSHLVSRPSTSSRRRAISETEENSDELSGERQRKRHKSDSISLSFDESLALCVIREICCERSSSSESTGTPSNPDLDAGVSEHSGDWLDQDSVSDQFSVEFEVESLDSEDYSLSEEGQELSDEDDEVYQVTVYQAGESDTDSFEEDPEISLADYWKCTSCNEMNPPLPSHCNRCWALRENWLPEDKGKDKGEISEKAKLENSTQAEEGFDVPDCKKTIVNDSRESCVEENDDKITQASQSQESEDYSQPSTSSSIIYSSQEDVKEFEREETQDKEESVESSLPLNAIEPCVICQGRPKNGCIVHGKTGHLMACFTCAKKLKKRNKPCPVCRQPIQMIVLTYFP

[2] = target: T2, Flag/HA-SMG7 stably expressed in U2OS cells (human) (UniProt Q92540); assay: as above
T2 sequence: T1 sequence

Row | Substance | binding [1] | binding [2]
1 | Mdm2 transiently expressed in H1299 cells (from UniProt Q00987 1-491) | binds | 
2 | Mdm2, endogenous in U2OS cells (from UniProt Q00987 1-491) |  | binds

Reference: PMC4860962
